The record followed here is PMC6136712, “Ex vivo drug sensitivity testing as a means for drug repurposing in esophageal adenocarcinoma” (PLoS ONE, 2018).

This assay deals with normal esophageal epithelium cell line EACN42. Briefly: FDA library drug sensitivity testing (CellTiter-Glo, 72 h), normal control cells. The class given is cell-based, human. Further details: key to DSS: modified drug sensitivity score (DSSmod) from dose-response curve fit. The protocol: The normal esophageal epithelium cell line EACN42 was established in the Capobianco laboratory. The cell lines was derived from human normal epithelium and immortalized using HPV E6-E7.
Drug sensitivity testing (DST) was performed as described previously. […] Individual drugs were dissolved in 100% DMSO and tested in duplicates starting at a maximal test concentration of 10μM then over a 20,000-fold concentration range to generate dose response curves. Wells with assay buffer containing DMSO served as negative controls. 1000 exponentially growing cells were seeded per well in 384-well micro-titer plates and incubated in the presence of compounds in a humidified environment at 37°C and 5% CO2. After 72 hours of treatment, cell viability was assessed by measuring ATP levels via bioluminescence (CellTiter-Glo, Promega) according to manufactures recommendations. Interpretation of curve parameters was performed according to the modified drug sensitivity scoring (DSSmod) function developed by Swords et al. […] Given in this way, the sDSSmod incorporated information on each drug’s potency, efficacy, effect range and therapeutic index, making it possible to prioritize compounds over multiple parameters using a single numerical metric. […] All calculations and scoring routines are implemented in MatLab and additional curve fitting and statistical analyses are performed in GraphPad prism.

Where a name gives a salt, the structure may show the parent alone.

Take `CCN[C@H]1C[C@H](C)S(=O)(=O)c2sc(S(N)(=O)=O)cc21` [Dorzolamide HCL]: a half-maximal response (Homo sapiens, cell viability (ATP), max test concentration 10μM) (EC50) required 5.33 µM.

`COC(=O)[C@H](CCCN=C(N)N)NS(=O)(=O)c1ccc(C)cc1` [TAME]: the DSS (drug sensitivity score) was 0.
